Test results taken from patent US20130225503A1, “TEX14 PEPTIDES AS NOVEL ANTITUMOR AGENTS” (Baylor Licnensing Group, priority 2009, published 2013).
No constants are given. Whether binding was seen depends on the method and setting. Some results given as binding are weak or reduced against the parent protein; the word gives no strength.

T1: 80-amino-acid fragment of mouse CEP55 that contains the hinge region (C1) (mouse) (UniProt Q8BT07)
T1 sequence (looked up): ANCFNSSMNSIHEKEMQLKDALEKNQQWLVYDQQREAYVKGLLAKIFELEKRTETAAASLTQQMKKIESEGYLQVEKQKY

T2: long C-terminal domain of mouse TEX14 (T3) (mouse) (UniProt Q7M6U3)
T2 sequence (looked up): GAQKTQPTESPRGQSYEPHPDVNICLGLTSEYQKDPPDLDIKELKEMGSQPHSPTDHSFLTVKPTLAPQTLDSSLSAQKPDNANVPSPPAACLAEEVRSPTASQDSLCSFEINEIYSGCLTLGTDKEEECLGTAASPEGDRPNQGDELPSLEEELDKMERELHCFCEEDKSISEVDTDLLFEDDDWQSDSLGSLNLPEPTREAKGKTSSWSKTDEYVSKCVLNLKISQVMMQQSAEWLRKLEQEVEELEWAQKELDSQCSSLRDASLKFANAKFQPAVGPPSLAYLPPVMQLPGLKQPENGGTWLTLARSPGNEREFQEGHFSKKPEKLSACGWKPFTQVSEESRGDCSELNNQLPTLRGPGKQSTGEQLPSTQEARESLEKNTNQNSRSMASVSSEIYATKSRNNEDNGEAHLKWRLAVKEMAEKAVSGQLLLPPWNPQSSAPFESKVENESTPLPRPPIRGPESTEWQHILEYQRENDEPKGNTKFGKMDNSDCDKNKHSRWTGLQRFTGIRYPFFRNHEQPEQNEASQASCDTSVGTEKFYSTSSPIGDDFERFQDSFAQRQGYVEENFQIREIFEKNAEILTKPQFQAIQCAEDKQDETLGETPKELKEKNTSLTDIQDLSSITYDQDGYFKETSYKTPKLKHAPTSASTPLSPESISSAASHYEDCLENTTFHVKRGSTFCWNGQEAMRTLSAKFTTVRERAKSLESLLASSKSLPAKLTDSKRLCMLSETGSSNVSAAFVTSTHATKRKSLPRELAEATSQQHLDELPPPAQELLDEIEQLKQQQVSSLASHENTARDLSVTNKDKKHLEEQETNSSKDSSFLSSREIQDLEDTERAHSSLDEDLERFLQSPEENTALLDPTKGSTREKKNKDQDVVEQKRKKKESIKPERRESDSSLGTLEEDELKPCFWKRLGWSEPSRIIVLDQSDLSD

T3: full-length mouse TEX14 (mouse, UniProt Q7M6U3 1-1450)
T3 construct: whole, on cells; In the yeast two-hybrid assay it stood as a fusion with a GAL4 domain (pGBKT7 bait or pGADT7 prey vector)
T3 sequence (looked up): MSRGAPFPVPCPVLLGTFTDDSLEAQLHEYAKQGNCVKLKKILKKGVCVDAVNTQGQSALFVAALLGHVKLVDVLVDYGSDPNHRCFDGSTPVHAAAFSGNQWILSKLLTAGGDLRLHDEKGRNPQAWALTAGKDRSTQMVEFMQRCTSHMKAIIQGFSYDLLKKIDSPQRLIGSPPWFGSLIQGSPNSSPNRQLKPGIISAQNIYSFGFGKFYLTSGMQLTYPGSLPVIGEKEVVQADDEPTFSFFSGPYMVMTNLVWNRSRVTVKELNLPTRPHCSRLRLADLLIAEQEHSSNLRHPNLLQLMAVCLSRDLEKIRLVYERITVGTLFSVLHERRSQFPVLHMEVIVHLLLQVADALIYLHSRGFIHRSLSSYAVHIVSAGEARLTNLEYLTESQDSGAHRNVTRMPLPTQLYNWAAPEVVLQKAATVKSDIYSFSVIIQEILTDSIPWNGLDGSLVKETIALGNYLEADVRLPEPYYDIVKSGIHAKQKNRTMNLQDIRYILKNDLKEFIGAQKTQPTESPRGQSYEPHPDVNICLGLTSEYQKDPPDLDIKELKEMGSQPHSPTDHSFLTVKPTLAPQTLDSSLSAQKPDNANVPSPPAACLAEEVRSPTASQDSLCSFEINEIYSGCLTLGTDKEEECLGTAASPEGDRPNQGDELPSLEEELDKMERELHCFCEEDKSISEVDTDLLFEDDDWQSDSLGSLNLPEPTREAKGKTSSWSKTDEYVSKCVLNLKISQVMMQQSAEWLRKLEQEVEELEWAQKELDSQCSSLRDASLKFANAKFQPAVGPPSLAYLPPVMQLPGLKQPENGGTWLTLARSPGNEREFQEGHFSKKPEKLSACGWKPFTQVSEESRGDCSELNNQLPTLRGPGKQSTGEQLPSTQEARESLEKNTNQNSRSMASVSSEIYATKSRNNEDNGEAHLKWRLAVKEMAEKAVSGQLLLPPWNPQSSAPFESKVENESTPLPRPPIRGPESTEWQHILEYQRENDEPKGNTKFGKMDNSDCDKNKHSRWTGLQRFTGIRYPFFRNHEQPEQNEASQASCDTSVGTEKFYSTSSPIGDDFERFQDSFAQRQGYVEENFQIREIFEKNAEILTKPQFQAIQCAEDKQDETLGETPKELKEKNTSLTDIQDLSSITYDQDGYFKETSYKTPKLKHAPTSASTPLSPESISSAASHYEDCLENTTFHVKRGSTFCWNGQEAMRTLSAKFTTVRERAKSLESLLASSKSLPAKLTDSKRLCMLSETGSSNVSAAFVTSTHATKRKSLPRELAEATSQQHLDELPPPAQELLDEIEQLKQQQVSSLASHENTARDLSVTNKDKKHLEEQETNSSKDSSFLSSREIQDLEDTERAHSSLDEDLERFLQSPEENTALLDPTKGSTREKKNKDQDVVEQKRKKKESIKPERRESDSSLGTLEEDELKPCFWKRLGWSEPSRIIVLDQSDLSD

T4: mouse TEX14 amino acids 756 to 815, GPPX3Y-containing fragment (T4) (mouse) (UniProt Q7M6U3)
T4 sequence (looked up): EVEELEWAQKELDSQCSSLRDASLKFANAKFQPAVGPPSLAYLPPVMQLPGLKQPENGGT


Legend:
[1] = target: T1, 80-amino-acid fragment of mouse CEP55 that contains the hinge region (C1) (mouse); assay: figure legend: yeast two-hybrid
[2] = target: T2, long C-terminal domain of mouse TEX14 (T3) (mouse); assay: yeast two-hybrid
full-length mouse TEX14 = target: T3, full-length mouse TEX14; assay: yeast two-hybrid
[3] = target: T4, mouse TEX14 amino acids 756 to 815, GPPX3Y-containing fragment (T4) (mouse); assay: yeast two-hybrid

Row | binding [1] | binding [2] | binding (full-length mouse TEX14) | binding [3] | Binder
1 | binds | – | – | – | mouse TEX14 amino acids 756 to 815, GPPX3Y-containing fragment (T4) (peptide, UniProt Q7M6U3 756-815, looked up, range 756-815; Yeast two-hybrid GAL4 fusion; also called TEX14-T4) EVEELEWAQKELDSQCSSLRDASLKFANAKFQPAVGPPSLAYLPPVMQLPGLKQPENGGT
2 | – | binds | binds | binds | 80-amino-acid fragment of mouse CEP55 that contains the hinge region (C1) (protein, UniProt Q8BT07 157-236, looked up) ANCFNSSMNSIHEKEMQLKDALEKNQQWLVYDQQREAYVKGLLAKIFELEKRTETAAASLTQQMKKIESEGYLQVEKQKY
